# Test results from doi:10.1101/2021.06.15.448480.
# The chains behind the UniProt entries cited, without tags or fusion partners. Where a name states a change or a piece, a line headed by the entry shows the natural chain unless it says otherwise.
# UniProt Q07065, whole entry: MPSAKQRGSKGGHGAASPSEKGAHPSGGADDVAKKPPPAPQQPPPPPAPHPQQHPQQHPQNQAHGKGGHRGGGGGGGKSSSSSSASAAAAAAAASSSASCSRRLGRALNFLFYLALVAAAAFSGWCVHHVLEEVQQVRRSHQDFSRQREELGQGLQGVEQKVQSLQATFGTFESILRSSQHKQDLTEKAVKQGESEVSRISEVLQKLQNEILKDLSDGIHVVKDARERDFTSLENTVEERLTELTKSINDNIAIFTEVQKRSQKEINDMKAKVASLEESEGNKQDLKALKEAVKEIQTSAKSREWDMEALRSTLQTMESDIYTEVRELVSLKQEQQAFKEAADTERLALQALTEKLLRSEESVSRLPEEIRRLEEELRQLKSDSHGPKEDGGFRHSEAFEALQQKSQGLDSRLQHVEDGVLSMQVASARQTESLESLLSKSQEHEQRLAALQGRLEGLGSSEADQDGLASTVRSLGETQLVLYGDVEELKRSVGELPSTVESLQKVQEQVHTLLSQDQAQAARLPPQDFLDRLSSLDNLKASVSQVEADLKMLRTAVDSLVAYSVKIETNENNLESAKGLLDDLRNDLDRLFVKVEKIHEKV
# Results are given in words; binding and its absence hold for the method and conditions named. In cells and extracts the contact can be indirect. Some binding calls cover weakened binding; strength is not graded here. For some assays here: Sequences can lack the tags named with a protein.
# T1: RHBDL4 (endogenous) (UniProt Q8TEB9)
# T1 sequence: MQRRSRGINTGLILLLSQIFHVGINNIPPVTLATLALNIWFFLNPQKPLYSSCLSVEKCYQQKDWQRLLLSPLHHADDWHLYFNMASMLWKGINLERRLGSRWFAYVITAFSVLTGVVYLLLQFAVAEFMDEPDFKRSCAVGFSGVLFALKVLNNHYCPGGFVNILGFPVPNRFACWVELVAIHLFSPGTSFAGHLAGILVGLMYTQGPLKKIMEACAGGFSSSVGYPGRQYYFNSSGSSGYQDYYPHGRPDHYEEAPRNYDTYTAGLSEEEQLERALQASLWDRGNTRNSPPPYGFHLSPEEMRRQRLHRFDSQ
# T2: RHBDL4 HA (UniProt Q8TEB9)
# T2 sequence: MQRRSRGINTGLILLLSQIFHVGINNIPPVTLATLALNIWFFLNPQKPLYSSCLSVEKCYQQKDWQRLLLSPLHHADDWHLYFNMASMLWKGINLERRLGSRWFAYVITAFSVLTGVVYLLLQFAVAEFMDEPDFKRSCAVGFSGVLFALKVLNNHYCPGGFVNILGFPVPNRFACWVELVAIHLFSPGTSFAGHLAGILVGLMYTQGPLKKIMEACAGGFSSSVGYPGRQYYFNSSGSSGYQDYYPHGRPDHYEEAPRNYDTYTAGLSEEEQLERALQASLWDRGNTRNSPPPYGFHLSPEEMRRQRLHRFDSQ
# Columns and labels:
# Test in all cases: co-IP
# RHBDL4 (endogenous) = target: T1, RHBDL4 (endogenous)
# RHBDL4 HA = target: T2, RHBDL4 HA
# CLIMP-63 HA = CLIMP-63 HA (UniProt Q07065)
# CLIMP-63 Myc = CLIMP-63 Myc (UniProt Q07065)
molecule,measurement,setting,value
CLIMP-63 (endogenous) (from UniProt Q07065 1-602),binding,RHBDL4 (endogenous),binds
CLIMP-63 Myc (from UniProt Q07065 1-602),binding,RHBDL4 HA,binds
"RHBDL4 Myc (enzyme, UniProt Q8TEB9 1-315) MQRRSRGINTGLILLLSQIFHVGINNIPPVTLATLALNIWFFLNPQKPLYSSCLSVEKCYQQKDWQRLLLSPLHHADDWHLYFNMASMLWKGINLERRLGSRWFAYVITAFSVLTGVVYLLLQFAVAEFMDEPDFKRSCAVGFSGVLFALKVLNNHYCPGGFVNILGFPVPNRFACWVELVAIHLFSPGTSFAGHLAGILVGLMYTQGPLKKIMEACAGGFSSSVGYPGRQYYFNSSGSSGYQDYYPHGRPDHYEEAPRNYDTYTAGLSEEEQLERALQASLWDRGNTRNSPPPYGFHLSPEEMRRQRLHRFDSQ",binding,CLIMP-63 HA,binds
"RHBDL4 HA (enzyme, UniProt Q8TEB9 1-315) MQRRSRGINTGLILLLSQIFHVGINNIPPVTLATLALNIWFFLNPQKPLYSSCLSVEKCYQQKDWQRLLLSPLHHADDWHLYFNMASMLWKGINLERRLGSRWFAYVITAFSVLTGVVYLLLQFAVAEFMDEPDFKRSCAVGFSGVLFALKVLNNHYCPGGFVNILGFPVPNRFACWVELVAIHLFSPGTSFAGHLAGILVGLMYTQGPLKKIMEACAGGFSSSVGYPGRQYYFNSSGSSGYQDYYPHGRPDHYEEAPRNYDTYTAGLSEEEQLERALQASLWDRGNTRNSPPPYGFHLSPEEMRRQRLHRFDSQ",binding,CLIMP-63 Myc,binds
"RHBDL4 S144A (enzyme, UniProt Q8TEB9 1-315) MQRRSRGINTGLILLLSQIFHVGINNIPPVTLATLALNIWFFLNPQKPLYSSCLSVEKCYQQKDWQRLLLSPLHHADDWHLYFNMASMLWKGINLERRLGSRWFAYVITAFSVLTGVVYLLLQFAVAEFMDEPDFKRSCAVGFAGVLFALKVLNNHYCPGGFVNILGFPVPNRFACWVELVAIHLFSPGTSFAGHLAGILVGLMYTQGPLKKIMEACAGGFSSSVGYPGRQYYFNSSGSSGYQDYYPHGRPDHYEEAPRNYDTYTAGLSEEEQLERALQASLWDRGNTRNSPPPYGFHLSPEEMRRQRLHRFDSQ",binding,CLIMP-63 Myc,binds
